Data on six molecules can be found in article doi:10.1101/2025.03.28.646022.

Amino acid sequences for entries named in this document (tags omitted). A change or cut given only in a name is not applied to a line headed by its entry.
UniProt Q9UHD9, whole entry: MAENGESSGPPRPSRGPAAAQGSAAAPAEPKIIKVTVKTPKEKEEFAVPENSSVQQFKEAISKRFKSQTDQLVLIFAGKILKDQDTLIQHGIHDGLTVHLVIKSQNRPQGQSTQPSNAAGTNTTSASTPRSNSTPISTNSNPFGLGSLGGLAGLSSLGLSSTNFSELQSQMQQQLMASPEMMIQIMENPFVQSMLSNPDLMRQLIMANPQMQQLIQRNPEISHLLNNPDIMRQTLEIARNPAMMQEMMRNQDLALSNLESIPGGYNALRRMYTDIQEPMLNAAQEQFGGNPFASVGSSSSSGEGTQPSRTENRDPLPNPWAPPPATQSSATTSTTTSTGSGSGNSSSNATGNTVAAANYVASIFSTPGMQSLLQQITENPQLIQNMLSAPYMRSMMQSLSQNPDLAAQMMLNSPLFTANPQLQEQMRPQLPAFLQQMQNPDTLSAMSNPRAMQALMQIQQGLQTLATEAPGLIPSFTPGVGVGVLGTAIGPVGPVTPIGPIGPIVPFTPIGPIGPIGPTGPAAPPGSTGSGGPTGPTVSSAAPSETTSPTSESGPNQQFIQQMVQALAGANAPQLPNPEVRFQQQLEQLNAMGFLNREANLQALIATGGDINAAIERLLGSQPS
UniProt P55036, whole entry: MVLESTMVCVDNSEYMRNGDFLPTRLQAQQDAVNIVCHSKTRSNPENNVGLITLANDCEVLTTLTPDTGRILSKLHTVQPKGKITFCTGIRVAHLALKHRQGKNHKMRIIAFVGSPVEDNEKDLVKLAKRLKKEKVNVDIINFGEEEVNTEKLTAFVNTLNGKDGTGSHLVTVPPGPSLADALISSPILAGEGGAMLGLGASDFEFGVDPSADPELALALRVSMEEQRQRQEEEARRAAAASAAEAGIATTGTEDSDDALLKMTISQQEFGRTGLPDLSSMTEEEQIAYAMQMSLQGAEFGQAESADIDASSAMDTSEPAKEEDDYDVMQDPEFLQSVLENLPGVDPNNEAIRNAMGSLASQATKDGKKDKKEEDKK
UniProt Q05086, whole entry: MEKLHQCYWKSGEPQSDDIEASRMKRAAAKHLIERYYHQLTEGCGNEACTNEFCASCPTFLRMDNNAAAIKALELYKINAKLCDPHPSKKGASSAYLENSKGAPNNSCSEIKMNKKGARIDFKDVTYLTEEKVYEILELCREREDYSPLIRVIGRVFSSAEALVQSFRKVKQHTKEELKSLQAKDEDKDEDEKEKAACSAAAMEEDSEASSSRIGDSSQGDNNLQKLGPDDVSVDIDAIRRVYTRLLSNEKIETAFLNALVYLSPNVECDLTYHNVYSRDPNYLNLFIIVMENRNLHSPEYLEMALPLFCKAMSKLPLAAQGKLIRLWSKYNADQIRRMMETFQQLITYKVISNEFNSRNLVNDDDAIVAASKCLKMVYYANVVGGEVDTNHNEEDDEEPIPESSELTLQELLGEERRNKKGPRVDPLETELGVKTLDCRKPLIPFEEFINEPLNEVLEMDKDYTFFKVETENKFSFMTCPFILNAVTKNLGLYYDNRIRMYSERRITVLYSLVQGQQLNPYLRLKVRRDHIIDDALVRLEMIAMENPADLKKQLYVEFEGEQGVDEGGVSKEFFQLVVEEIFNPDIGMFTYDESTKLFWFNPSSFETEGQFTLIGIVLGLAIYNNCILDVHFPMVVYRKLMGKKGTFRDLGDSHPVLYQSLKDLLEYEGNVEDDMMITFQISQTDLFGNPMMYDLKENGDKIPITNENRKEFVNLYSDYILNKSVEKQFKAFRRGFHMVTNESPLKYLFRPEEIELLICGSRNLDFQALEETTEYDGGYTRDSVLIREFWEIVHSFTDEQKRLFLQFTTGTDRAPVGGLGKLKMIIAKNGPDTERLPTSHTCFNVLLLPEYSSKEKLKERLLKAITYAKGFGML

What all share (test): co-IP
Experiment [1] deals with Ubiquilin 2 (UBQLN2), endogenous (human (endogenous in HEK293)) (UniProt Q9UHD9).
The target of experiment [2] is T1, HA-tagged PEG10 gag-pol^K>R (K393/567/586/590R) (human) (UniProt Q86TG7).
T1 sequence: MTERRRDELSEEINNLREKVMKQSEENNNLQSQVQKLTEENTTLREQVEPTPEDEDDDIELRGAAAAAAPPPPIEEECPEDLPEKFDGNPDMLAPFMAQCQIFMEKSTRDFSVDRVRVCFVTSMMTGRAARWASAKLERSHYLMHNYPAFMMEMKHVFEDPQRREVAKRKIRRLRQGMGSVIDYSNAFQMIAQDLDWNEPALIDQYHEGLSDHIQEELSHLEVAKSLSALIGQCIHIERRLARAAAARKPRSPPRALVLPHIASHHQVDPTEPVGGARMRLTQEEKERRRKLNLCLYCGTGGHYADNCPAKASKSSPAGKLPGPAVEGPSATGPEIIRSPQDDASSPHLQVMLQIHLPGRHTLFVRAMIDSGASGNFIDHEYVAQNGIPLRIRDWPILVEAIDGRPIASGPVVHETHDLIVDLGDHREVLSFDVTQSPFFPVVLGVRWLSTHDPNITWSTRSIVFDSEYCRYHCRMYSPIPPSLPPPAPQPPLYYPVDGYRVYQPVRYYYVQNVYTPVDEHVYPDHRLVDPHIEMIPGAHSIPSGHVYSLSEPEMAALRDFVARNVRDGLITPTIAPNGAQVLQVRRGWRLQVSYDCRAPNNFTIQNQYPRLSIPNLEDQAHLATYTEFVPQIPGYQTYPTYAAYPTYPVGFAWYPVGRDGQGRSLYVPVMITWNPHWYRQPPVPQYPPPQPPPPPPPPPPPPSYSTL

In experiment [3] the target is Ubiquilin 2 (UBQLN2), endogenous (human (endogenous in HEK293)) (UniProt Q9UHD9). This is another data set of the same source.
Experiment [4] has as its target FLAG-UBQLN2 WT (AA 1-624) (human) (UniProt Q9UHD9).
Experiment [5] concerns the target FLAG-UBQLN2 ΔUBA (AA 1-580) (human) (UniProt Q9UHD9).
For experiment [6], the target named is FLAG-UBQLN2 ΔUBL (AA 1-624 missing AA 33-107) (human) (UniProt Q9UHD9).
Experiment [7] concerns the target MYC-UBQLN2 (WT) (human) (UniProt Q9UHD9).
Experiment [8] has as its target Ubiquilin 2 (UBQLN2), endogenous (human (endogenous in HEK293)) (UniProt Q9UHD9). This is another data set of the same source.

Changes are numbered by the printed parent chain. Where two headings read alike, the source gives them in different places. These are yes or no findings as the source states them, for the method shown. Binding seen in cells or lysates may run through a third protein. Some entries that bind do so weakly or less than the wild type. For some of these results: Where a sequence is shown, tags or fusion partners need not be part of it.

Consider “PSMD4 (also known as Rpn10), proteasome subunit, endogenous (from UniProt P55036 1-377)”, for which the binding result in experiment [1] is “binds”.
Turning to “FLAG-tagged UBE3A ΔAZUL (UBE3A^ΔAZUL), isoform 2, AA 60-853 (from UniProt Q05086-2 60-852) (domain or fragment)”, the binding result in experiment [1] was “binds”.
For the molecule “Ubiquilin 2 (UBQLN2), endogenous (from UniProt Q9UHD9 1-624)”, in experiment [2], the binding result is “binds”.
On to “UBE3A (also known as E6AP), endogenous (from UniProt Q05086 1-875) (enzyme)”, for which, in experiment [1], the binding entry was “binds”.

B1: PEG10 gag, endogenous (protein, UniProt Q86TG7-2 1-325)
chain: MTERRRDELSEEINNLREKVMKQSEENNNLQSQVQKLTEENTTLREQVEPTPEDEDDDIELRGAAAAAAPPPPIEEECPEDLPEKFDGNPDMLAPFMAQCQIFMEKSTRDFSVDRVRVCFVTSMMTGRAARWASAKLERSHYLMHNYPAFMMEMKHVFEDPQRREVAKRKIRRLRQGMGSVIDYSNAFQMIAQDLDWNEPALIDQYHEGLSDHIQEELSHLEVAKSLSALIGQCIHIERRLARAAAARKPRSPPRALVLPHIASHHQVDPTEPVGGARMRLTQEEKERRRKLNLCLYCGTGGHYADNCPAKASKSSPAGNSPAPL
B1: the binding result in experiment [3], in experiment [4], in experiment [5], in experiment [6], in experiment [7] and in experiment [8] was “binds” each time.

B2: PEG10 gag-pol, endogenous (protein, UniProt Q86TG7 1-708)
chain: T1 sequence with R393K, R567K, R586K, R590K
As for B2, the binding entry in experiment [3], in experiment [4], in experiment [5], in experiment [6], in experiment [7] and in experiment [8] was “binds” throughout.
